Patent publication US20110189209A1 (GOVERNMENT OF THE UNITED STATES OF AMERICA AS REPRESENTED …, published 2011)
These are yes or no findings as the source states them, for the method shown. Some results given as binding are weak or reduced against the parent protein; the word gives no strength.

Sequences of proteins named here, by UniProt entry; tags and fusion partners are left off. Residues count along the entry.
UniProt Q95LI5, residues 22-198: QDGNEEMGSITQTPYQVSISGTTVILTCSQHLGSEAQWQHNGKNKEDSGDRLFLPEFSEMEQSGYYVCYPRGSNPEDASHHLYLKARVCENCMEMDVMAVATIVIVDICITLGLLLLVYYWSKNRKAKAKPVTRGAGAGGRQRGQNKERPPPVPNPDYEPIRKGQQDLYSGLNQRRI

Columns and labels:
[1] = biological target: monkey CD3 on HSC-F monkey T cells (cynomolgus monkey) (UniProt Q95LI5); assay: competition with FN18-FITC on HSC-F cells, flow cytometry
[2] = biological target: monkey CD3 on HSC-F monkey T cells (cynomolgus monkey) (UniProt Q95LI5); assay: competition with FITC-labeled FN18 on HSC-F cells, flow cytometry (legend of FIG. 13)
[3] = biological target: monkey CD3 on HSC-F monkey T cells (cynomolgus monkey) (UniProt Q95LI5); assay: competition with FITC-labeled FN18 tracer (5x10^-9 M) for binding to HSC-F monkey T cells, flow cytometry, 4 C

Measured: binding

B1: biscFv(C207) (other)
chain: DFVMSQSPSSLAVSVGERVTMSCKSSQSLLYFSNRKNYLAWYQQKPGQSPKLLINWASTRESGVPDRFTGSGSRTDFTLTISSVKAEDLAVYFCQQFYSYPPTFGGGTKLEIKGGGGSGGGGSGGGGSQVQLQQSEAELARPGASVKMSCKASGYTFTDYTIHWLRQKPGQGLDWIGYFNPSSGSTEYNRKFKDRTILTADRSSTTVYMQLSSLTSEDSAVYYCARKGEKLLGNRYWYFDVWGAGTSVTVSSGGGGSGGGGSGGGGSDFVMSQSPSSLAVSVGERVTMSCKSSQSLLYFSNRKNYLAWYQQKPGQSPKLLINWASTRESGVPDRFTGSGSRTDFTLTISSVKAEDLAVYFCQQFYSYPPTFGGGTKLEIKGGGGSGGGGSGGGGSQVQLQQSEAELARPGASVKMSCKASGYTFTDYTIHWLRQKPGQGLDWIGYFNPSSGSTEYNRKFKDRTILTADRSSTTVYMQLSSLTSEDSAVYYCARKGEKLLGNRYWYFDVWGAGTSVTVSS
binds: all assays above

B2: Db(C207) (other)
chain: DFVMSQSPSSLAVSVGERVTMSCKSSQSLLYFSNRKNYLAWYQQKPGQSPKLLINWASTRESGVPDRFTGSGSRTDFTLTISSVKAEDLAVYFCQQFYSYPPTFGGGTKLEIKGGGGSQVQLQQSEAELARPGASVKMSCKASGYTFTDYTIHWLRQKPGQGLDWIGYFNPSSGSTEYNRKFKDRTILTADRSSTTVYMQLSSLTSEDSAVYYCARKGEKLLGNRYWYFDVWGAGTSVTVSS
notes: also called diabody of C207; diabody (C207)
binds: all assays above

B3: scFv(C207) (scFv)
scFv: DFVMSQSPSSLAVSVGERVTMSCKSSQSLLYFSNRKNYLAWYQQKPGQSPKLLINWASTRESGVPDRFTGSGSRTDFTLTISSVKAEDLAVYFCQQFYSYPPTFGGGTKLEIKGGGGSGGGGSGGGGSQVQLQQSEAELARPGASVKMSCKASGYTFTDYTIHWLRQKPGQGLDWIGYFNPSSGSTEYNRKFKDRTILTADRSSTTVYMQLSSLTSEDSAVYYCARKGEKLLGNRYWYFDVWGAGTSVTVSS
binds: all assays above
